Measurements published in patent publication JP2018108089A.
Where a chain is given by its changes, count along the chain named. No constants are given. Whether binding was seen depends on the method and setting. Some binding calls cover weakened binding; strength is not graded here.

The chains behind the UniProt entries cited, without tags or fusion partners. Residues count along the entry.
UniProt P10646, residues 29-304: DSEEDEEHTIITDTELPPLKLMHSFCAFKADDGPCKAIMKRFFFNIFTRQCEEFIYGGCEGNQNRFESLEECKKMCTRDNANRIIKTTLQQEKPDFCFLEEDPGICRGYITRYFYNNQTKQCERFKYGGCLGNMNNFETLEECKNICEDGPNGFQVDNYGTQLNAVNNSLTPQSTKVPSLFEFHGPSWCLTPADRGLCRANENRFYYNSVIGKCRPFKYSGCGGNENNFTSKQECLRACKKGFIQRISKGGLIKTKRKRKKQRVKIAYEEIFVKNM

B1: TP-3F1 (Fab, V domains shown)
VH: QVQLVQSGAEVKKPGESLKISCKGSGYSFTDYWIGWVRQMPGKGLEWMGIIQPSDSDTNYSPSFQGQVTISADKSISTAYLQWSSLKASDTAMYYCARFMWWGKYDSGFDVWGQGTLVTVSS
VL: DIELTQPPSVSVAPGQTARISCSGDNIGSYFASWYQQKPGQAPVLVIYDDSNRPSGIPERFSGSNSGNTATLTISGTQAEDEADYYCEGSNVFGGGTKLTVLG
B2: TP-2A10 (Fab, V domains shown)
VH: QVQLVESGGGLVQPGGSLRLSCAASGFTFTSYSMNWVRQAPGKGLEWVSAISYTGSNTHYADSVKGRFTISRDNSKNTLYLQMNSLRAEDTAVYYCARAFLGYKESYFDIWGQGTLVTVSS
VL: DIELTQPPSVSVAPGQTARISCSGDKLGKKYVHWYQQKPGQAPVLVIYGDDKRPSGIPERFSGSNSGNTATLTISGTQAEDEADYYCQAWGSISRFVFGGGTKLTVLG
B3: TP-4H8 (Fab, V domains shown)
VH: QVQLVESGGGLVQPGGSLRLSCAASGFTFSDHAMHWVRQAPGKGLEWVSVIEYSGSKTNYADSVKGRFTISRDNSKNTLYLQMNSLRAEDTAVYYCARGDYYPYLVFAIWGQGTLVTVSS
VL: DIELTQPPSVSVAPGQTARISCSGDSIGKKYVHWYQQKPGQAPVLVIYGDNNRPSGIPERFSGSNSGNTATLTISGTQAEDEADYYCSTADSVITYKNVFGGGTKLTVLG
B4: TP-3H2 (Fab, V domains shown)
VH: QVQLVESGGGLVQPGGSLRLSCAASGFTFNSYYMSWVRQAPGKGLEWVSNISSSGSNTNYADSVKGRFTISRDNSKNTLYLQMNSLRAEDTAVYYCARVHYGFDFWGQGTLVTVSS
VL: DIELTQPPSVSVAPGQTARISCSGDKLGKYYAYWYQQKPGQAPVLVIYGDSKRPSGIPERFSGSNSGNTATLTISGTQAEDEADYYCSSAAFGSTVFGGGTKLTVLG
B5: TP-4A9 (Fab, V domains shown)
VH: QVQLVESGGGLVQPGGSLRLSCAASGFTFSSYGMSWVRQAPGKGLEWVSLISGVSSSTYYADSVKGRFTISRDNSKNTLYLQMNSLRAEDTAVYYCARSYLGYFDVWGQGTLVTVSS
VL: B4 VL with K26A, Y33S, S51N, S88Q, A90Y, A91T, F92T, G93R, T95L
B6: TP-3G1 (Fab, V domains shown)
VH: QVQLQQSGPGLVKPSQTLSLTCAISGDSVSSNSGGWGWIRQSPGRGLEWLGLIYYRSKWYNAYAVSVKSRITINPDTSKNQFSLQLNSVTPEDTAVYYCARYLGSNFYVYSDVWGQGTLVTVSS
VL: DIQMTQSPSSLSASVGDRVTITCRASQGISSYLHWYQQKPGKAPKLLIYGASTLQSGVPSRFSGSGSGTDFTLTISSLQPEDFATYYCQQQNGYPFTFGQGTKVEIKR
B7: TP-2B3 (Fab, V domains shown)
VH: QVQLQQSGPGLVKPSQTLSLTCAISGDSVSSNSAAWGWIRQSPGRGLEWLGMIYYRSKWYNSYAVSVKSRITINPDTSKNQFSLQLNSVTPEDTAVYYCARTMSKYGGPGMDVWGQGTLVTVSS
VL: DIVLTQSPATLSLSPGERATLSCRASQNIGSNYLAWYQQKPGQAPRLLIYGASTRATGVPARFNGSGSGTDFTLTISSLEPEDFAVYYCQQLNSIPVTFGQGTKVEIKR
B8: TP-3E1 (Fab, V domains shown)
VH: QVQLVESGGGLVQPGGSLRLSCAASGFTFSNYAMTWVRQAPGKGLEWVSVISSVGSNTYYADSVKGRFTISRDNSKNTLYLQMNSLRAEDTAVYYCARPTKAGRTWWWGPYMDVWGQGTLVTVSS
VL: DIELTQPPSVSVAPGQTARISCSGDNIGSYYAYWYQQKPGQAPVLVIYDDSNRPSGIPERFSGSNSGNTATLTISGTQAEDEADYYCQSYDSTGLLVFGGGTKLTVLG
B9: TP-4A7 (Fab, V domains shown)
VH: QVQLVESGGGLVQPGGSLRLSCAASGFTFRNYAMNWVRQAPGKGLEWVSVISGSSSYTYYADSVKGRFTISRDNSKNTLYLQMNSLRAEDTAVYYCARADLPYMVFDYWGQGTLVTVSS
VL: B8 VL with N26A, I27L, Y30K, Y31F, Y33H, N52E, S89A, T93G, G94L, L96Y
B10: TP-3F2 (Fab, V domains shown)
VH: QVQLVESGGGLVQPGGSLRLSCAASGFTFSSYSMHWVRQAPGKGLEWVSGISYSSSFTYYADSVKGRFTISRDNSKNTLYLQMNSLRAEDTAVYYCARALGGGVDYWGQGTLVTVSS
VL: DIELTQPPSVSVAPGQTARISCSGDNLPSKSVYWYQQKPGQAPVLVIYGDNNRPSGIPERFSGSNSGNTATLTISGTQAEDEADYYCQSWTSRPMVVFGGGTKLTVLG
B11: TP-4G8 (Fab, V domains shown)
VH: QVQLVESGGGLVQPGGSLRLSCAASGFTFSTYAMHWVRQAPGKGLEWVSTISGYGSFTYYADSVKGRFTISRDNSKNTLYLQMNSLRAEDTAVYYCARNGRKYGQMDNWGQGTLVTVSS
VL: DIELTQPPSVSVAPGQTARISCSGDKLGSKSVHWYQQKPGQAPVLVIYRDTDRPSGIPERFSGSNSGNTATLTISGTQAEDEADYYCQTYDYILNVFGGGTKLTVLG
B12: TP-2B1 (Fab, V domains shown)
VH: QVQLVESGGGLVQPGGSLRLSCAASGFTFSSYSMSWVRQASGKGLEWVSSIKGSGSNTYYADSVKGRFTISRDNSKNTLYLQMNSLRAEDTAVYYCARNGGLIDVWGQGTLVTVSS
VL: DIELTQPPSVSVAPGQTARISCSGDNLGNKYAHWYQQKPGQAPVLVIYYDNKRPSGIPERFSGSNSGNTATLTISGTQAEDEADYYCQSWTPGSNTMVFGGGTRLTVLG
B13: TP-2B4 (Fab, V domains shown)
VH: QVQLVESGGGLVQPGGSLRLSCAASGFTFSNYSMTWVRQAPGKGLEWVSGISYNGSNTYYADSVKGRFTISRDNSKNTLYLQMNSLRAEDTAVYYCARIYYMNLLAGWGQGTLVTVSS
VL: DIELTQPPSVSVAPGQTARISCSGDALGTYYAYWYQQKPGQAPVLVIYGDMNRPSGIPERFSGSNSGNTATLTISGTQAEDEADYYCQSYDAGVKPAVFGGGTKLTVLG
B14: TP-4E8 (Fab, V domains shown)
VH: QVQLVESGGGLVQPGGSLRLSCAASGFTFNDYAMSWVRQAPGKGLEWVSLIESVSSSTYYADSVKGRFTISRDNSKNTLYLQMNSLRAEDTAVYYCARTIGVLWDDVWGQGTLVTVSS
VL: DIELTQPPSVSVAPGQTARISCSGDALGSKYVSWYQQKPGQAPVLVIYGDNKRPSGIPERFSGSNSGNTATLTISGTQAEDEADYYCQSYTYSLNQVFGGGTKLTVLG
B15: TP-2B8 (Fab, V domains shown)
VH: QVQLVQSGAEVKKPGASVKVSCKASGYTFTGNSMHWVRQAPGQGLEWMGTIFPYDGTTKYAQKFQGRVTMTRDTSISTAYMELSSLRSEDTAVYYCARGVHSYFDYWGQGTLVTVSS
VL: DIELTQPPSVSVAPGQTARISCSGDNLRGYYASWYQQKPGQAPVLVIYEDNNRPSGIPERFSGSNSGNTATLTISGTQAEDEADYYCQSWDSPYVHVFGGGTKLTVLG
B16: TP-3G3 (Fab, V domains shown)
VH: QVQLVESGGGLVQPGGSLRLSCAASGFTFSSYSMSWVRQAPGKGLEWVSSISSSSSNTYYGDSVKGRFTISRDNSKNTLYLQMNSLRAEDTAVYYCARMHYKGMDIWGQGTLVTVSS
VL: DIQMTQSPSSLSASVGDRVTITCRASQNIHSHLNWYQQKPGKAPKLLIYDASSLQSGVPSRFSGSGSGTDFTLTISSLQPEDFAVYYCQQYYDYPLTFGQGTKVEIKR

Molecular target: human tissue factor pathway inhibitor (TFPI) (human) (UniProt P10646)
Experiment: ELISA, Fab from bacterial lysate on coated human TFPI

binding, binds:
B1
B2
B3
B4
B5
B6
B7
B8
B9
B10
B11
B12
B13
B14
B15
B16
